Measurements taken from publication PMC10855946.
No constants are given. Whether binding was seen depends on the method and setting. Some entries that bind do so weakly or less than the wild type.

Chains of the proteins cited; added tags and fusions are not shown.
UniProt P70658: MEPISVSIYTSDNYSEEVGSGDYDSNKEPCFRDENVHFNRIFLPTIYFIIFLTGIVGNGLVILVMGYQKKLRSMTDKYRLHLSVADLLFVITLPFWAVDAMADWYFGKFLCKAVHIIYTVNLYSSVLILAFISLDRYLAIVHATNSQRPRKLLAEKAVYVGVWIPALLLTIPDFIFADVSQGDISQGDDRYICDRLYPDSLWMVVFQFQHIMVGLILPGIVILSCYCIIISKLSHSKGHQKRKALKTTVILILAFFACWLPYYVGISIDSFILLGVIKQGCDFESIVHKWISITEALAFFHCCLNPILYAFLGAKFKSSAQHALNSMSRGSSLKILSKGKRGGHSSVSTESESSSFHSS
UniProt P56485: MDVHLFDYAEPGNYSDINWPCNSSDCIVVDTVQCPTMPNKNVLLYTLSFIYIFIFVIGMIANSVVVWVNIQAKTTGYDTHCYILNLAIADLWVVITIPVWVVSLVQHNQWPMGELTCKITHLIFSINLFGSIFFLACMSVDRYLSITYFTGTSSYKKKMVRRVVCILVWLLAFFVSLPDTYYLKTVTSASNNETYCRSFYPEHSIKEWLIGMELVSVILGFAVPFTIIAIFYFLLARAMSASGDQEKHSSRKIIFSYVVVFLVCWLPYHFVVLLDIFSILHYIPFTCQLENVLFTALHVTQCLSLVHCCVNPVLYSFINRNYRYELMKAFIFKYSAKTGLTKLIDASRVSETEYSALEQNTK

Molecular target: T1, CXCL14-TMP-Cub-GAL4 bait (C-X-C motif chemokine ligand 14 anchored to the yeast membrane) (UniProt Q9WUQ5)
T1 sequence: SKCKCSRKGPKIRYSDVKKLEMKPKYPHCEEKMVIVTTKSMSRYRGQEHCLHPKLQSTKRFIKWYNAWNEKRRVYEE
Experiment: two-hybrid; MALAR-Y2H (membrane-anchored, split-ubiquitin Cub-GAL4/NubG); GoldY2H bait cells mated with Y187 prey cells; diploids on SD/Leu-Trp-Ade-His- plates with α-X-gal and 15 mM 3-AT, growth after 72 h; β-Gal assay of diploid cells

| binding | Substance |
| --- | --- |
| binds | OST1-CXCR4-NubG prey (mouse CXC motif receptor 4) (from UniProt P70658 1-359) |
| binds | OST1-CXCR7-NubG prey (mouse CXC motif receptor 7) (from UniProt P56485 1-362) |
